# Reference: PubChem BioAssay AID256 (DTP/NCI, 2004)
# The list shows only some results of the screen, not a fair sample: it is rich in T/C values a quarter to a half above the control, in often repeated tests (any T/C) and in doses without a T/C. Other doses and runs of a compound stand elsewhere. T/C gives the treated animals as a percentage of the vehicle group. Some doses have a count of surviving animals in place of a T/C: the source files T/C as zero there, which appears to mark a toxic dose or a test without result, not a measured value. Some doses without a T/C left all or most animals alive at the check, yet need not have been tolerated: the source hardly ever lists a survival T/C far under the control, and the zero likely stands for such cases as well. Counts of survivors are from the toxicity check (mostly the fifth day) where no day follows; animals may have died later. Schedule codes are those of the source, taken here to give the interval after Q, in days (D) or hours (H), and the number of doses after X. For survival time, the PubChem record calls one and a half times the control and up active, and a quarter to a half above the control has no call in these data; cut-offs in other NCI protocols can differ.
# Test system: CD2F1 mice, L1210 leukemia ip, survival T/C
# Test: NCI In Vivo Anticancer Drug Screen. Data for tumor model L1210 Leukemia (intraperitoneal) in CD2F1 (CDF1) mice
# Settings: higher T/C = longer survival
# Summary of the method: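 Each value reflects a quotient of treated over vehicle control outcomes in mice with a transplanted tumor.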
# [1] = T/C endpoint: mean survival time, dose: 100.0 mg/kg/injection, schedule: Q01DX001 (ip), vehicle: saline
# [2] = T/C endpoint: mean survival time, dose: 400.0 mg/kg/injection, schedule: Q01DX001 (ip), vehicle: saline
# [3] = T/C endpoint: mean survival time, dose: 100.0 mg/kg/injection, schedule: Q04DX003 (ip), vehicle: saline with Tween-80
# [4] = T/C endpoint: mean survival time, dose: 200.0 mg/kg/injection, schedule: Q04DX003 (ip), vehicle: saline with Tween-80
# [5] = T/C endpoint: mean survival time, dose: 400.0 mg/kg/injection, schedule: Q04DX003 (ip), vehicle: saline with Tween-80
# [6] = T/C endpoint: mean survival time, dose: 100.0 mg/kg/injection, schedule: Q01DX009 (ip), vehicle: saline with Tween-80
# [7] = T/C endpoint: mean survival time, dose: 200.0 mg/kg/injection, schedule: Q01DX009 (ip), vehicle: saline with Tween-80
# [8] = T/C endpoint: median survival time, dose: 400.0 mg/kg/injection, schedule: Q01DX009 (ip), vehicle: Klucel (hydroxypropylcellulose) (HPC)
# [9] = T/C endpoint: mean survival time, dose: 200.0 mg/kg/injection, schedule: Q04DX003 (ip), vehicle: saline
# [10] = T/C endpoint: mean survival time, dose: 25.0 mg/kg/injection, schedule: Q01DX009 (ip), vehicle: other
# [11] = T/C endpoint: mean survival time, dose: 100.0 mg/kg/injection, schedule: Q01DX009 (ip), vehicle: other
# [12] = T/C endpoint: mean survival time, dose: 50.0 mg/kg/injection, schedule: Q01DX009 (ip), vehicle: saline with Tween-80
# [13] = T/C endpoint: mean survival time, dose: 100.0 mg/kg/injection, schedule: Q04DX003 (ip), vehicle: other
structure (smiles),measurement,setting,value
N=C(N)SCCc1ccccc1,survivor count,[1],1 of 3
same,survivor count,"T/C endpoint: mean survival time, dose: 200.0 mg/kg/injection, schedule: Q01DX001 (ip), vehicle: saline",0 of 3
same,survivor count,[2],0 of 3
Cc1ccc(S(=O)(=O)Nc2c([N+](=O)[O-])cc([N+](=O)[O-])c3ccccc23)cc1,survivor count,[3],1 of 6
same,survivor count,[4],0 of 6
same,survivor count,[5],0 of 6
c1ccc(CCN2CCC(CCc3c[nH]c4ccccc34)CC2)cc1,survivor count,[6],5 of 6
same,survivor count,[7],0 of 6
Clc1ccc(C2SC=Cc3ccccc32)cc1 (configuration not stated),survivor count,[8],0 of 10
same,survivor count,"T/C endpoint: median survival time, dose: 800.0 mg/kg/injection, schedule: Q01DX009 (ip), vehicle: Klucel (hydroxypropylcellulose) (HPC)",0 of 10
Fc1ccc(N2CCNCC2)cc1,survivor count,[3],2 of 6
same,survivor count,[4],0 of 6
same,survivor count,[5],0 of 6
COc1cc2cc(c1Cl)N(C)C(=O)CC(OC(=O)C(C)N(C)C(=O)C(C)C)C1(C)OC1C(C)C1CC(O)(NC(=O)O1)C(OC)/C=C/C=C(C)C2OC (configuration not stated),T/C,"T/C endpoint: median survival time, dose: 32.0 micrograms/kg/injection, schedule: Q01DX009 (ip), vehicle: Klucel (hydroxypropylcellulose) (HPC)",132 % of control
CC(C)OC(=O)C#CC(=O)O,survivor count,[1],2 of 6
OCC1OC(n2cc(I)c3c2ncn2ccnc32)C(O)C1O (configuration not stated),survivor count,"T/C endpoint: mean survival time, dose: 25.0 mg/kg/injection, schedule: Q01DX005 (ip), vehicle: water",1 of 6
same,survivor count,"T/C endpoint: mean survival time, dose: 50.0 mg/kg/injection, schedule: Q01DX005 (ip), vehicle: water",0 of 4
same,survivor count,"T/C endpoint: mean survival time, dose: 100.0 mg/kg/injection, schedule: Q01DX005 (ip), vehicle: water",0 of 4
same,survivor count,"T/C endpoint: mean survival time, dose: 200.0 mg/kg/injection, schedule: Q01DX005 (ip), vehicle: water",0 of 4
O=[N+]([O-])c1ccccn1,survivor count,"T/C endpoint: mean survival time, dose: 100.0 mg/kg/injection, schedule: Q04DX003 (ip), vehicle: saline",1 of 6
same,survivor count,[9],0 of 6
same,survivor count,"T/C endpoint: mean survival time, dose: 400.0 mg/kg/injection, schedule: Q04DX003 (ip), vehicle: saline",0 of 6
CCCCN(CCCC)CC(O)c1cc(-c2cc(C(O)CN(CCCC)CCCC)c3ccccc3n2)nc2ccccc12 (configuration not stated),survivor count,[5],6 of 6
C=C(Br)COCC,survivor count,[4],0 of 6
same,survivor count,[5],0 of 6
CCOC(=O)C(=CCBr)C(=O)OCC,survivor count,[10],2 of 6
same,survivor count,"T/C endpoint: mean survival time, dose: 50.0 mg/kg/injection, schedule: Q01DX009 (ip), vehicle: other",0 of 6
same,survivor count,[11],0 of 6
same,survivor count,"T/C endpoint: mean survival time, dose: 200.0 mg/kg/injection, schedule: Q01DX009 (ip), vehicle: other",0 of 6
same,survivor count,"T/C endpoint: mean survival time, dose: 400.0 mg/kg/injection, schedule: Q01DX009 (ip), vehicle: other",0 of 6
CN(C)C1CCC(Nc2nc(Nc3cc(Cl)cc(Cl)c3)nc3ccccc23)CC1 (configuration not stated),survivor count,[6],2 of 6
O=C1CC(c2ccccc2)CO1 (configuration not stated),survivor count,[2],2 of 4
CCOc1ccc(Br)cc1/C=C(\C#N)c1ccc([N+](=O)[O-])cc1,survivor count,"T/C endpoint: mean survival time, dose: 0.78 mg/kg/injection, schedule: Q01DX009 (ip), vehicle: saline with Tween-80",6 of 6
same,survivor count,"T/C endpoint: mean survival time, dose: 1.56 mg/kg/injection, schedule: Q01DX009 (ip), vehicle: saline with Tween-80",6 of 6
same,survivor count,"T/C endpoint: mean survival time, dose: 3.13 mg/kg/injection, schedule: Q01DX009 (ip), vehicle: saline with Tween-80",6 of 6
same,survivor count,"T/C endpoint: mean survival time, dose: 6.25 mg/kg/injection, schedule: Q01DX009 (ip), vehicle: saline with Tween-80",6 of 6
Cc1ccc(-c2csc(/N=C/c3ccccc3O)n2)cc1.Cc1ccc(-c2csc(/N=C/c3ccccc3O)n2)cc1.[Cu],survivor count,"T/C endpoint: mean survival time, dose: 200.0 mg/kg/injection, schedule: Q01DX001 (ip), vehicle: saline with Tween-80",3 of 3
Cc1cc(C)c(C(=O)CCCC(=O)O)c(C)c1,survivor count,[5],6 of 6
NC(=S)c1ncn(C2OC(COC=O)C(OC=O)C2OC=O)c1NC=O (configuration not stated),T/C,"T/C endpoint: mean survival time, dose: 50.0 mg/kg/injection, schedule: Q01DX009 (ip), vehicle: Klucel (hydroxypropylcellulose) (HPC)",144 % of control
same,T/C,"T/C endpoint: mean survival time, dose: 100.0 mg/kg/injection, schedule: Q04DX002 (ip), vehicle: Klucel (hydroxypropylcellulose) (HPC)",130 % of control
same,T/C,"T/C endpoint: mean survival time, dose: 200.0 mg/kg/injection, schedule: Q04DX002 (ip), vehicle: Klucel (hydroxypropylcellulose) (HPC)",136 % of control
same,survivor count,"T/C endpoint: mean survival time, dose: 400.0 mg/kg/injection, schedule: Q01DX009 (ip), vehicle: Klucel (hydroxypropylcellulose) (HPC)",5 of 6
same,T/C,"T/C endpoint: median survival time, dose: 25.0 mg/kg/injection, schedule: Q01DX009 (ip), vehicle: Klucel (hydroxypropylcellulose) (HPC)",126 % of control
same,T/C,"T/C endpoint: median survival time, dose: 50.0 mg/kg/injection, schedule: Q01DX009 (ip), vehicle: Klucel (hydroxypropylcellulose) (HPC), evaluated on day 23",137 % of control
same,T/C,"T/C endpoint: median survival time, dose: 50.0 mg/kg/injection, schedule: Q01DX009 (ip), vehicle: Klucel (hydroxypropylcellulose) (HPC), evaluated on day 30",126 % of control
same,T/C,"T/C endpoint: median survival time, dose: 100.0 mg/kg/injection, schedule: Q01DX009 (ip), vehicle: Klucel (hydroxypropylcellulose) (HPC), evaluated on day 23",148 % of control
same,T/C,"T/C endpoint: median survival time, dose: 100.0 mg/kg/injection, schedule: Q01DX009 (ip), vehicle: Klucel (hydroxypropylcellulose) (HPC), evaluated on day 30",136 % of control
same,survivor count,[8],0 of 6
COc1ccc(C2OC(=O)c3cccnc32)cc1OC (configuration not stated),survivor count,[10],6 of 6
same,survivor count,[11],6 of 6
Cc1ccc(S(=O)(=O)/C=C(\I)c2ccc([N+](=O)[O-])cc2)cc1,survivor count,[9],0 of 6
O=c1cc(-c2ccccc2)[nH]c2c1CCCC2,T/C,"T/C endpoint: median survival time, dose: 200.0 mg/kg/injection, schedule: Q01DX009 (ip), vehicle: saline with Tween-80",132 % of control
same,T/C,"T/C endpoint: median survival time, dose: 400.0 mg/kg/injection, schedule: Q01DX009 (ip), vehicle: saline with Tween-80",136 % of control
CC(/C=N/N(C)C)=N\N(C)C,survivor count,"T/C endpoint: mean survival time, dose: 200.0 mg/kg/injection, schedule: Q01DX009 (ip), vehicle: saline",0 of 6
N=C(N)c1ccc(OCCOc2ccc(N)cc2)cc1,survivor count,"T/C endpoint: mean survival time, dose: 400.0 mg/kg/injection, schedule: Q01DX001 (ip), vehicle: saline with Tween-80",1 of 6
COc1ccc(C(CO)CC(=O)NCCN(C)C)cc1 (configuration not stated),survivor count,"T/C endpoint: mean survival time, dose: 400.0 mg/kg/injection, schedule: Q04DX002 (ip), vehicle: saline",3 of 3
CC(C)(C)OC(=O)NC(CCC(=O)OCc1ccccc1)C(=O)O (configuration not stated) (tested in a mixture with another compound),survivor count,[12],6 of 6
same,survivor count,[7],0 of 6
same,survivor count,"T/C endpoint: mean survival time, dose: 400.0 mg/kg/injection, schedule: Q01DX009 (ip), vehicle: saline with Tween-80",0 of 6
CC(=O)c1cno[n+]1[O-],survivor count,"T/C endpoint: mean survival time, dose: 20.0 mg/kg/injection, schedule: Q01DX009 (ip), vehicle: saline with Tween-80",1 of 6
CCOC(=O)c1ncc(Cl)cc1N,survivor count,"T/C endpoint: mean survival time, dose: 100.0 mg/kg/injection, schedule: Q01DX009 (ip), vehicle: Klucel (hydroxypropylcellulose) (HPC)",1 of 6
same,survivor count,"T/C endpoint: mean survival time, dose: 200.0 mg/kg/injection, schedule: Q01DX009 (ip), vehicle: Klucel (hydroxypropylcellulose) (HPC)",0 of 6
CC(C)CC(C)COC(=O)c1c(Cl)c(Cl)c(Cl)c(Cl)c1C(=O)O (configuration not stated),survivor count,[2],0 of 6
CSC(=S)N/N=C/c1ccccn1,survivor count,[7],1 of 6
same,survivor count,[5],0 of 6
CCNC(=O)OCc1cn2c(c1COC(=O)NCC)CCC2,survivor count,"T/C endpoint: mean survival time, dose: 25.0 mg/kg/injection, schedule: Q04DX003 (ip), vehicle: other",0 of 5
same,survivor count,"T/C endpoint: mean survival time, dose: 50.0 mg/kg/injection, schedule: Q04DX003 (ip), vehicle: other",0 of 5
same,survivor count,[13],0 of 5
same,survivor count,"T/C endpoint: mean survival time, dose: 200.0 mg/kg/injection, schedule: Q04DX003 (ip), vehicle: other",0 of 5
Cc1ccc(OCCOc2ccc([N+](=O)[O-])cc2)cc1,survivor count,[13],3 of 6
O=[N+]([O-])c1cc(F)ccc1O,survivor count,[12],3 of 6
same,survivor count,[7],3 of 6
